According to patent publication US20100190199A1, “GPR30 ESTROGEN RECEPTOR IN BREAST AND OVARIAN CANCERS” (Rhode Island Hospital, priority 2008, published 2010):
These are yes or no findings as the source states them, for the method shown. Some entries that bind do so weakly or less than the wild type.

By UniProt entry, the sequences of proteins in these tests, tags left out. Where a name states a change or a piece, a line headed by the entry shows the natural chain unless it says otherwise.
UniProt P08648: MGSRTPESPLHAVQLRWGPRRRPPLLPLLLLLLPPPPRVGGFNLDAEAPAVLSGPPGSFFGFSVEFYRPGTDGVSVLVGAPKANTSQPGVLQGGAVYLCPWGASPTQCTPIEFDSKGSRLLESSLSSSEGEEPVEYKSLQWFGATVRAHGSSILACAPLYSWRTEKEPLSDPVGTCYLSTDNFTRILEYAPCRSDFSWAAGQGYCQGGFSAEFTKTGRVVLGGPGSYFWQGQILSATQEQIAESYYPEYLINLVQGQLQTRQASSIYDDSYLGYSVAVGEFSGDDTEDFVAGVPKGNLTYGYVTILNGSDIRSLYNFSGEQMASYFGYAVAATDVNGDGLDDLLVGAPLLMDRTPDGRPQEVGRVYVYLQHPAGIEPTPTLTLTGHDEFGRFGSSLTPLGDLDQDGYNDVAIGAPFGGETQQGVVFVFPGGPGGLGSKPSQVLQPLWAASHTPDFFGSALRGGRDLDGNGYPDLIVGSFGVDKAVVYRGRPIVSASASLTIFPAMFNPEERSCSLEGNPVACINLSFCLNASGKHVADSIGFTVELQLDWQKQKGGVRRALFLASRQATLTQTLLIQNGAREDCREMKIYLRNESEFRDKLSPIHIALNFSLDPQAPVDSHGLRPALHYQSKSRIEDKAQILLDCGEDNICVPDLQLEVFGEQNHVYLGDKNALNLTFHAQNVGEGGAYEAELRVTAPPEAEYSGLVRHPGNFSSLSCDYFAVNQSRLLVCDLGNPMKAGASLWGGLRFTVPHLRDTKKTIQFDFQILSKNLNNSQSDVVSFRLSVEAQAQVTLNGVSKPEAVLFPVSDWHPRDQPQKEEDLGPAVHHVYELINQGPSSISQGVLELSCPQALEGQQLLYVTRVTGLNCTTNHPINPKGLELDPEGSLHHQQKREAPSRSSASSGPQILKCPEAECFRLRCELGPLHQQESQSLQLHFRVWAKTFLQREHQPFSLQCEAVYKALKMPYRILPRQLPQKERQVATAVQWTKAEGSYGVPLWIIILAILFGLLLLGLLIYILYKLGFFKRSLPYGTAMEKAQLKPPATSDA

Target: integrin α5β1 (UniProt P08648)
Experiment: complex formation in human breast cancer cells after GPR30 stimulation; method not described

- binding: binds
B1: Mutant Shc (317Y/F) (protein, UniProt P29353-2 1-473, looked up)
chain: MNKLSGGGGRRTRVEGGQLGGEEWTRHGSFVNKPTRGWLHPNDKVMGPGVSYLVRYMGCVEVLQSMRALDFNTRTQVTREAISLVCEAVPGAKGATRRRKPCSRPLSSILGRSNLKFAGMPITLTVSTSSLNLMAADCKQIIANHHMQSISFASGGDPDTAEYVAYVAKDPVNQRACHILECPEGLAQDVISTIGQAFELRFKQYLRNPPKLVTPHDRMAGFDGSAWDEEEEEPPDHQYYNDFPGKEPPLGGVVDMRLREGAAPGAARPTAPNAQTPSHLGATLPVGQPVGGDPEVRKQMPPPPPCPGRELFDDPSFVNVQNLDKARQAVGGAGPPNPAINGSAPRDLFDMKPFEDALRVPPPPQSVSMAEQLRGEPWFHGKLSRREAEALLQLNGDFLVRESTTTPGQYVLTGLQSGQPKHLLLVDPEGVVRTKDHRFESVSHLISYHMDNHLPIISAGSELCLQQPVERKL
